# Measured values published in article PMC4536467, “A high affinity RIM-binding protein/Aplip1 interaction prevents the formation of ectopic axonal active zones” (eLife, 2015).
# These are yes or no findings as the source states them, for the method shown. In cells and extracts the contact can be indirect. Binding calls can cover weak binding; strength is not graded here. Sequences can lack the tags named with a protein.
# Target: T1, Aplip1-GFP (pan-neuronally driven cDNA construct) (D. melanogaster) (UniProt Q9W0K0)
# T1 sequence: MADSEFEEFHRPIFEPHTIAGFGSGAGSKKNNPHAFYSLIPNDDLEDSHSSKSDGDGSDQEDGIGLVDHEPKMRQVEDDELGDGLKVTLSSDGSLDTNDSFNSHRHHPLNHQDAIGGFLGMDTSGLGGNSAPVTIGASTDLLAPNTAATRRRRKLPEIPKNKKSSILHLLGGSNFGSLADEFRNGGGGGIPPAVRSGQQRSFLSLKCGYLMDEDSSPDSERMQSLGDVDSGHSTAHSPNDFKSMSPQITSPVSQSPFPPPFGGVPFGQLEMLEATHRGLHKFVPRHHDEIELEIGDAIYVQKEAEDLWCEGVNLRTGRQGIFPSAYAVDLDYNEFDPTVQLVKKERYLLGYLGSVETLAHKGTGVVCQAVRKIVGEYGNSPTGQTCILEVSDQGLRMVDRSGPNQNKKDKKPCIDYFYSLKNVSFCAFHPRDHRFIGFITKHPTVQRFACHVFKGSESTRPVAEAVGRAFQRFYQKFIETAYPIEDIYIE
# Experiment: co-IP; anti-GFP (GFP-Trap-A beads) from adult fly head extract (synaptic membrane / active zone protein-enriched fraction) of elav-Gal4 > UAS-Aplip1^GFP; deoxycholate and Triton X-100 lysate, overnight 4°C; Western blot; controls plain beads and GFP trapped beads
substance,measurement,value
"RIM-binding protein (RBP), endogenous",binding,binds
